# For at least one compound, name, drawing or mass did not settle the structure.
# Amino acid sequences for entries named in this document (tags omitted).
# UniProt Q99720, whole entry: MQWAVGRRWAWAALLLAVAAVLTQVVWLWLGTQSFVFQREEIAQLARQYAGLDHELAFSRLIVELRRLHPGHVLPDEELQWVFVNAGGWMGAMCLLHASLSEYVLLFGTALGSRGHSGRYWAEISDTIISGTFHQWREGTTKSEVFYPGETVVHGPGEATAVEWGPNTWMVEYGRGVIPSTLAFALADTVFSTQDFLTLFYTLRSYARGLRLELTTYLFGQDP
# Target: human σ1 receptor (Homo sapiens, UniProt Q99720)
# Assay: Human σ1 receptor radioligand assay ([3H](+)-pentazocine, transfected HEK-293 membranes)
# Assay type: binding
# Parameters: key to the marks not given beside the values
# Conditions: one class symbol for both Ki-σ1 (human σ1 receptor, A1) and Ki-μ (human μ-opioid receptor, A2)
# Method: Human σ1 Receptor Radioligand Assay
# To investigate binding properties of test compounds to human σ1 receptor, transfected HEK-293 membranes and [^3H](+)-pentazocine (Perkin Elmer, NET-1056), as the radioligand, were used. The assay was carried out with 7 μg of membrane suspension, 5 nM of [^3H](+)-pentazocine in either absence or presence of either buffer or 10 μM Haloperidol for total and non-specific binding, respectively. Binding buffer contained Tris-HCl 50 mM at pH 8. Plates were incubated at 37° C. for 120 minutes. After the incubation period, the reaction mix was then transferred to MultiScreen HTS, FC plates (Millipore), filtered and plates were washed 3 times with ice-cold 10 mM Tris-HCL (pH7.4). Filters were dried and counted at approximately 40% efficiency in a MicroBeta scintillation counter (Perkin-Elmer) using EcoScint liquid scintillation cocktail
row,SMILES,μ and σ1 dual binding
1,"N#Cc1ccc(CN2CCN(C3(C(=O)c4ccccn4)CCOCC3)CC2)cc1 [Example 179, 4-((4-(4-picolinoyltetrahydro-2H-pyran-4-yl)piperazin-1-yl)methyl)benzonitrile]",++
2,"O=C(c1ccccn1)C1(N2CCN(Cc3ccc(F)cc3F)CC2)CCOCC1 [Example 199, (4-(4-(2,4-difluorobenzyl)piperazin-1-yl)tetrahydro-2H-pyran-4-yl)(pyridin-2-yl)methanone]",++

# — patent US10807970B2 (priority 2016, dated 2020)
